From PubChem BioAssay AID504834 (National Center for Advancing Translational Sciences (NCATS), 2011)
About 22,000 (6.9%) of roughly 320,000 compounds were called active. Inconclusive means that the source gave no clear call. Such entries were picked first, then a sample of the others. Calls follow the shape of the dose curve; as a rule, active = well fitted inhibition curve with a large enough effect; inconclusive = small, poorly fitted or top-dose-only effect, or another doubt; inactive = no such curve, though single readings can be large or run the other way. Potencies of inconclusive entries are doubtful fits and often do not repeat.
% is scaled to controls: 0 for no effect and ±100 for the full control effect; potency is read from the fitted curve at half-maximal effect.

Test: Primary qHTS for delayed death inhibitors of the malarial parasite plastid, 96 hour incubation
Details: P. falciparum luciferase reporter growth; series mostly up to 28.7 µM; activity change, negative = inhibition: at the top concentration
Procedure, shortened: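 Two-generation exposure (96 h) targets delayed-death phenotype. Reporter parasites carrying integrated firefly luciferase, in red cells at 2% hematocrit and 0.05% parasitemia final, kept at 37 C, 5% CO2; luminescence loss indicates inhibition.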
For `Cc1onc(-c2c(Cl)cccc2Cl)c1C(=O)Nc1ccc2c(c1)OCCO2`, the “activity change, negative = inhibition” value was inactive: 75.6%.
With `Cc1ccc(S(=O)(=O)NCC2NCCc3ccccc32)cc1` (configuration not stated) the Potency was inconclusive: 10.4 µM [inhibitor, single point].
In the case of `Cc1cc(NC(=O)c2ccccc2)n(C(C)(C)C)n1`, the “activity change, negative = inhibition” value is reported as inactive: 45.3%.
With `O=C(c1ccco1)N1CCN(C(=O)c2cn(-c3ccccc3)nc2-c2ccc(F)cc2)CC1` the “activity change, negative = inhibition” value was inactive: -24.4%.
For `COC(=O)C1=C(c2cccc(OCc3ccccc3)c2)C[C@@H]2CC[C@H]1N2C(=O)NCc1ccc(N(C)C)cc1`, the Potency was inconclusive: 5.22 µM [inhibitor, partial curve].
In the case of `CCN(CC)CCCNC(=O)c1cc(-c2ccc3c(c2)OCO3)on1`, the “activity change, negative = inhibition” value is reported as inactive: -14.3%.
For `COC(=O)c1cc(CC(=O)c2ccc(O)cc2O)c(C)o1`, the Potency was inconclusive: 8.28 µM [inhibitor, partial curve, poor fit].
For `COc1c(C)cc(C(=O)C2CCCN(C(=O)c3cc(C4CC4)[nH]n3)C2)cc1C` (configuration not stated), the Potency was inconclusive: 8.28 µM [inhibitor, partial curve].
With `CC1CN(c2ccc(Cl)nn2)CC(C)O1` (configuration not stated) the Potency was inconclusive: 4.15 µM [inhibitor, single point].
With `Cc1ccc(N2C(=O)C(Cl)=C(NCCO)C2=O)c(C)c1` the “activity change, negative = inhibition” value was inactive: 8.27%.
With `Cc1ccccc1C(=O)NCC(c1ccco1)N1CCc2ccccc2C1` (configuration not stated) the “activity change, negative = inhibition” value was inactive: -2.1%.
With `O=C(CCn1[nH]c(=O)c2ccccc2c1=O)OC1CCCCC1` the Potency was inconclusive: 6.57 µM [inhibitor, partial curve].
For `COC(=O)CCCC1=CC2=C(c3ccccc3)C(=O)C(C)(OC(=O)C3CCCC3)C(=O)C2=CN1C1CCCC1` (configuration not stated), the Potency was inconclusive: 10.4 µM [inhibitor, single point].
In the case of `Cc1ccc(S(=O)(=O)N2CCC(=O)N(CCOCc3ccccc3)CC2)cc1`, the Potency is reported as inconclusive: 9.28 µM [inhibitor, single point].
With `Cc1ccc(C)c(C(=O)CN2C(=O)NC3(CCc4ccccc43)C2=O)c1` (configuration not stated) the Potency was active: 14.7 µM.
In the case of `CC(C)CNc1ncnc2c1sc1nc(N3CCOCC3)c3c(c12)CC(C)(C)OC3`, the Potency is reported as inconclusive: 4.65 µM [inhibitor, partial curve].
For `CC(OC(=O)CNC(=O)c1ccc2ccccc2c1)C(=O)NC1CCCCC1C` (configuration not stated), the “activity change, negative = inhibition” value was inactive: 79.7%.
For `CCC1(CC)Nc2ccccc2C(=O)N1c1ccc(NC(C)=O)cc1`, the “activity change, negative = inhibition” value was inactive: 76.8%.
With `O=C(NCCCn1ccnc1)c1ccc2nccnc2c1` the Potency was inconclusive: 11.7 µM [inhibitor, partial curve].
In the case of `Cc1c(C)c2ccc(OCC(=O)N3CCC[C@@H]3C(=O)O)c(C)c2oc1=O`, the “activity change, negative = inhibition” value is reported as inactive: 58.7%.
With `CCC(C)NCC(=O)Nc1cc(S(=O)(=O)N(CC)c2ccccc2)ccc1Cl` (configuration not stated) the Potency was inconclusive: 10.4 µM [inhibitor, partial curve, poor fit].
In the case of `Nc1ccc2c(c1)Cc1cc([N+](=O)[O-])ccc1-2`, the Potency is reported as inconclusive: 2.94 µM [inhibitor, partial curve, poor fit].
In the case of `CCOc1ccc(NC(=O)NCCCSC2CCCCC2)cc1`, the Potency is reported as inconclusive: 18.5 µM [inhibitor, single point].
For `COc1ccc([C@H]2CC(=O)C=C(c3ccc(OC(F)(F)F)cc3)C2)cc1OC`, the Potency was active: 11.7 µM.
With `COc1ccc(/C=N/OC(=O)Nc2ccccc2OC)cc1` the “activity change, negative = inhibition” value was inactive: 87.1%.
In the case of `CCC(=O)Nc1ccc(/C(C)=N\NS(=O)(=O)c2ccc(C)cc2)cc1`, the Potency is reported as inconclusive: 2.33 µM [inhibitor, single point].
With `CN(C)N=C1c2cc(S(=O)(=O)N(C)C)ccc2-c2ccc(S(=O)(=O)N(C)C)cc21` the Potency was active: 11.7 µM.
In the case of `O=C(CCS(=O)(=O)c1ccc(Cl)cc1)Nc1nc(-c2cccnc2)cs1`, the “activity change, negative = inhibition” value is reported as inactive: 28.7%.
With `O=C(c1ccccc1F)N1CCN(c2cnn(-c3cccc(Cl)c3)c(=O)c2Cl)CC1` the Potency was inconclusive: 3.29 µM [inhibitor, full curve, poor fit].
In the case of `COc1ccc(S(=O)(=O)N2CCN(C(=O)c3oc4ccccc4c3C)CC2)cc1`, the Potency is reported as inconclusive: 18.5 µM [inhibitor, single point].
With `CCOCCCNS(=O)(=O)c1ccc(NC(=O)CN2C(=O)c3ccccc3C2=O)cc1` the Potency was inconclusive: 3.7 µM [inhibitor, partial curve, poor fit].
For `Cc1ccc(-c2nnc(SCC(=O)N(C)C)nc2-c2ccc(C)cc2)cc1`, the Potency was inconclusive: 11.7 µM [inhibitor, partial curve].
For `Cc1ccc2c(c1)C(c1ccc(F)cc1)N(C(=O)c1ccccc1Br)CC(=O)N2` (configuration not stated), the “activity change, negative = inhibition” value was inactive: 0%.
With `Cc1[nH]c(=O)[nH]c(=O)c1S(=O)(=O)Nc1ccc(F)cc1Cl` the Potency was inconclusive: 1.31 µM [inhibitor, full curve].
For `COc1cccc(CNC(=O)Cn2ccc3cc(S(=O)(=O)N4CCCCCC4)ccc32)c1`, the “activity change, negative = inhibition” value was inactive: -22.2%.
For `CN1CCN(C(=O)CCN2C(=O)/C(=C\c3ccccc3F)SC2=S)CC1`, the Potency was active: 11.7 µM.
With `CC(C)c1ccc(C2(C)NC(=O)N(C(C)C(=O)Nc3ccc(N4CCOCC4)cc3)C2=O)cc1` (configuration not stated) the Potency was inconclusive: 0.37 µM [inhibitor, partial curve, poor fit].
With `Cc1ccc(C(c2sc3ncnn3c2O)N2CCC(C)CC2)cc1` (configuration not stated) the Potency was active: 5.86 µM.
With `O=C(Nc1ccc(Cl)cn1)c1ccc2nccnc2c1` the “activity change, negative = inhibition” value was inactive: -1.91%.
For `CC(=O)C(=[N+]=[N-])C(=O)NCc1ccccc1`, the Potency was inconclusive: 11.7 µM [inhibitor, single point].
In the case of `CCOC(=O)c1ccc(NC(=O)Cn2cnc(S(=O)(=O)N3CCCC3)c2)cc1`, the Potency is reported as inconclusive: 18.5 µM [inhibitor, single point].
With `COc1ccc(-c2ccc3nnc(SCC(=O)NCC4CCCO4)n3n2)cc1` (configuration not stated) the Potency was inconclusive: 20.8 µM [inhibitor, partial curve, poor fit].
With `CC(=O)NC1C(=O)N=C(SCC(=O)Nc2c(C)cccc2C)NC1=O` (configuration not stated) the Potency was inconclusive: 10.4 µM [inhibitor, partial curve].
For `Cc1ccc(Cl)cc1N1CCN(C(=O)Cc2ccc(-n3c(=O)[nH]c4ccsc4c3=O)cc2)CC1`, the “activity change, negative = inhibition” value was inactive: -29.4%.
For `COc1cc(CN2CCNC(=O)C2CC(=O)NCCCN2CCOCC2)cc(OC)c1` (configuration not stated), the Potency was inconclusive: 18.5 µM [inhibitor, partial curve, poor fit].
For `CCOc1ccc(-n2c(=O)c3sccc3n(CC(=O)Nc3cccc(OC)c3)c2=O)cc1`, the “activity change, negative = inhibition” value was inactive: 110%.
In the case of `Cc1cccc(NC(=O)c2ccc(COc3ccccc3[N+](=O)[O-])o2)n1`, the Potency is reported as inconclusive: 0.828 µM [inhibitor, full curve].
With `COc1ccccc1-c1cc(C(=O)NC2CCN(C)CC2)c2ccc(Cl)c(C)c2n1` the Potency was inconclusive: 18.5 µM [inhibitor, single point].
For `CCCn1c(SCC(=O)NCc2ccc(F)cc2)n[nH]c1=O`, the Potency was inconclusive: 2.94 µM [inhibitor, single point].
With `Cc1ccc(C)c(NC(=O)COc2coc(CN3CCc4ccccc43)cc2=O)c1` the Potency was inconclusive: 5.22 µM [inhibitor, partial curve].
For `Cn1c(N=Nc2ccccc2)nc2ccccc21`, the Potency was active: 0.262 µM.
For `O=C(NCCS(=O)(=O)N1CCN(c2cccc(Cl)c2)CC1)c1ccco1`, the Potency was inconclusive: 11.7 µM [inhibitor, single point].
In the case of `Cc1ccc(-n2c(Cc3cccn3C)nnc2SCC(=O)NCc2ccco2)cc1`, the “activity change, negative = inhibition” value is reported as inactive: 44.5%.
For `O=C(NCCc1ccccn1)c1cc(-c2cccc3ccccc23)nc2ccccc12`, the Potency was inconclusive: 4.15 µM [inhibitor, partial curve, poor fit].
In the case of `Clc1ccc(C(c2nnnn2C2CCCC2)N2CCSCC2)cc1` (configuration not stated), the “activity change, negative = inhibition” value is reported as inactive: 80.1%.
With `Nc1cccc2nsnc12` the “activity change, negative = inhibition” value was inactive: 9.53%.
For `O=C(N/N=C/C1CC2C=CC1C2)c1ccccc1O` (configuration not stated), the “activity change, negative = inhibition” value was inactive: 19.7%.
In the case of `Cc1cc(C(=O)N2CCc3c([nH]c4ccccc34)C2c2c(F)cccc2Cl)no1` (configuration not stated), the “activity change, negative = inhibition” value is reported as inactive: -5.41%.
In the case of `CC1CCCN(CCCOc2ccc(Br)cc2Cl)C1` (configuration not stated), the Potency is reported as inconclusive: 11.7 µM [inhibitor, partial curve, poor fit].
With `CC(C)(C)c1ccc(C(=O)N2CCC(C(=O)c3ccccc3)CC2)cc1` the Potency was inconclusive: 18.5 µM [inhibitor, single point].
With `CC(C)n1c(=S)[nH]c2scc(-c3cccs3)c2c1=O` the “activity change, negative = inhibition” value was inactive: 36.7%.
In the case of `CCCn1nc2cc(C(=O)NCc3ccc(C)cc3)ccc2c1OC`, the Potency is reported as inconclusive: 1.31 µM [inhibitor, partial curve, poor fit].
For `CCc1ccc(C(=O)c2cnc3ccc(OC)cc3c2N2CCN(CC)CC2)cc1`, the “activity change, negative = inhibition” value was inactive: 36.4%.
With `O=C(CN1C(=O)/C(=C/c2cccc(Cl)c2)SC1=S)NC1C=CS(=O)(=O)C1` (configuration not stated) the “activity change, negative = inhibition” value was inactive: 41.5%.
With `COc1cc(C2C(C(C)=O)=C(O)C(=O)N2CCN2CCOCC2)ccc1O` (configuration not stated) the “activity change, negative = inhibition” value was inactive: 148%.
In the case of `CN(C)CCCC(C)(O)C(Cc1ccccc1)c1ccccc1` (configuration not stated), the Potency is reported as inconclusive: 14.7 µM [inhibitor, partial curve].
In the case of `CC(C)CN1CCC(=O)N([C@H](COc2ccccc2)c2ccccc2)CC1`, the Potency is reported as inconclusive: 10.4 µM [inhibitor, partial curve, poor fit].
With `COc1cc(/C=N/NC(=O)c2csc3c2CCCC3)ccc1OCCN1CCOCC1` the Potency was inconclusive: 7.38 µM [inhibitor, partial curve, poor fit].
For `Cn1cnnc1SCc1ccccc1`, the “activity change, negative = inhibition” value was inactive: 40.6%.
For `O=c1[nH]c(CSc2nnnn2-c2ccccc2)nc2ccccc12`, the Potency was inconclusive: 0.465 µM [inhibitor, full curve, poor fit].
In the case of `CC(C)(C)NC(=O)N1CCn2cccc2C1c1ccccc1F` (configuration not stated), the Potency is reported as inconclusive: 10.4 µM [inhibitor, single point].
With `N=c1c2c(ncn1Cc1ccco1)Oc1ccc3ccccc3c1C2c1ccccc1` (configuration not stated) the Potency was inconclusive: 2.94 µM [inhibitor, full curve, poor fit].
